Laboratory results published in US10098964B2, “Inclusion complexes and methods for making the same” (The Board of Trustees of the University of Illinois, priority 2015, dated 2018).

Key:
[1] = R-Index by ranking sensory difference test of microencapsulated tributyrin in infant formula (Example 2); parameters: species or system human
[2] = R-index measure by rating method, microencapsulated and free TB in infant formula (Example 5); parameters: species or system human

For CCCC(=O)OCC(COC(=O)CCC)OC(=O)CCC [Tributyrin, 1,3-di(butanoyloxy)propan-2-yl butanoate], which “Estimated d′ value (degree of difference)” value ([1]; in infant formula vs noise) is on record?
Its value is 1.24.

And the “Average R-Index” value ([1]; in infant formula vs noise (no tributyrin), 33 panelists, scores range 50 to 100)?
Its value is 80.5^A.

And the “Average individual R-index” value ([2]; individual judge R-index, ANOVA/LSD, 0.2 g TB/serving infant formula)?
The value was 80.5^A***.

What about the “Calculated R-index (pooled)” value ([2]; pooled, over 57.95% significantly different from control (n = 170, α = 0.01, two-tailed)) of the same compound?
Its value is 80.6**.

Marks after values point to notes of the source that are not given here.
